The values below come from PMC9950063.

The test concerns the target STING-Flag (Stimulator of interferon genes, from pEF-BOS STING-Flag-His), Q86WV6. Kind of test: co-IP; HEK-293T transfected with control siRNA (siNC) or siTRAF3, 24 h later co-transfected with cGAS and STING-Flag or control vectors for 16 h; lysates precipitated with anti-Flag beads; blot with anti-TBK1, anti-p-TBK1 (Ser172), anti-TRAF3. To be noted: remark: other sources report otherwise.

Results are given in words; binding and its absence hold for the method and conditions named. Binding seen in cells or lysates may run through a third protein. Some binding calls cover weakened binding; strength is not graded here.

B1: TANK-binding kinase 1 (TBK1, endogenous), Q9UHD2 1-729 (protein)
chain: MQSTSNHLWLLSDILGQGATANVFRGRHKKTGDLFAIKVFNNISFLRPVDVQMREFEVLKKLNHKNIVKLFAIEEETTTRHKVLIMEFCPCGSLYTVLEEPSNAYGLPESEFLIVLRDVVGGMNHLRENGIVHRDIKPGNIMRVIGEDGQSVYKLTDFGAARELEDDEQFVSLYGTEEYLHPDMYERAVLRKDHQKKYGATVDLWSIGVTFYHAATGSLPFRPFEGPRRNKEVMYKIITGKPSGAISGVQKAENGPIDWSGDMPVSCSLSRGLQVLLTPVLANILEADQEKCWGFDQFFAETSDILHRMVIHVFSLQQMTAHKIYIHSYNTATIFHELVYKQTKIISSNQELIYEGRRLVLEPGRLAQHFPKTTEENPIFVVSREPLNTIGLIYEKISLPKVHPRYDLDGDASMAKAITGVVCYACRIASTLLLYQELMRKGIRWLIELIKDDYNETVHKKTEVVITLDFCIRNIEKTVKVYEKLMKINLEAAELGEISDIHTKLLRLSSSQGTIETSLQDIDSRLSPGGSLADAWAHQEGTHPKDRNVEKLQVLLNCMTEIYYQFKKDKAERRLAYNEEQIHKFDKQKLYYHATKAMTHFTDECVKKYEAFLNKSEEWIRKMLHLRKQLLSLTNQCFDIEEEVSKYQEYTNELQETLPQKMFTASSGIKHTMTPIYPSSNTLVEMTLGMKKLKEEMEGVVKELAENNHILERFGSLTMDGGLRNVDCL
With B1, the binding result is “binds”.
